No constants are given. Whether binding was seen depends on the method and setting. Binding seen in cells or lysates may run through a third protein. Sequences can lack the tags named with a protein.
T1: mCherry-fused IFT54(1–532) (human) (UniProt Q8TDR0)
T1 sequence: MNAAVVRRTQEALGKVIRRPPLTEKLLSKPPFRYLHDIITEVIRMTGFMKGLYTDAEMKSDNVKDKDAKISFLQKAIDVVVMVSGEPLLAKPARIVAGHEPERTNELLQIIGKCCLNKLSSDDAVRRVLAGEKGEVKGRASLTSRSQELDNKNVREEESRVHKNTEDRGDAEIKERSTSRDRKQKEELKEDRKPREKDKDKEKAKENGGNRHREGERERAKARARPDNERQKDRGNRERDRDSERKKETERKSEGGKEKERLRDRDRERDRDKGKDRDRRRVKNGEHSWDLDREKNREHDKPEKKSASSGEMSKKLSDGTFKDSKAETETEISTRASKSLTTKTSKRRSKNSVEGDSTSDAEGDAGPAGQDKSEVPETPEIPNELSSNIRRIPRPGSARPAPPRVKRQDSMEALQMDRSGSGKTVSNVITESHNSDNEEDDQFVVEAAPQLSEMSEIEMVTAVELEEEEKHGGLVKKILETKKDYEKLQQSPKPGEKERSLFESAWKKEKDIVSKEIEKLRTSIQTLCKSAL

B1: IFT25 (protein, UniProt Q9Y547 1-144)
chain: MRKIDLCLSSEGSEVILATSSDEKHPPENIIDGNPETFWTTTGMFPQEFIICFHKHVRIERLVIQSYFVQTLKIEKSTSKEPVDFEQWIEKDLVHTEGQLQNEEIVAHDGSATYLRFIIVSAFDHFASVHSVSAEGTVVSNLSS
B2: IFT81 (protein, UniProt Q8WYA0 1-676)
chain: MSDQIKFIMDSLNKEPFRKNYNLITFDSLEPMQLLQVLSDVLAEIDPKQLVDIREEMPEQTAKRMLSLLGILKYKPSGNATDMSTFRQGLVIGSKPVIYPVLHWLLQRTNELKKRAYLARFLIKLEVPSEFLQDETVADTNKQYEELMEAFKTLHKEYEQLKISGFSTAEIRKDISAMEEEKDQLIKRVEHLKKRVETAQNHQWMLKIARQLRVEKEREEYLAQQKQEQKNQLFHAVQRLQRVQNQLKSMRQAAADAKPESLMKRLEEEIKFNLYMVTEKFPKELENKKKELHFLQKVVSEPAMGHSDLLELESKINEINTEINQLIEKKMMRNEPIEGKLSLYRQQASIISRKKEAKAEELQEAKEKLASLEREASVKRNQTREFDGTEVLKGDEFKRYVNKLRSKSTVFKKKHQIIAELKAEFGLLQRTEELLKQRHENIQQQLQTMEEKKGISGYSYTQEELERVSALKSEVDEMKGRTLDDMSEMVKKLYSLVSEKKSALASVIKELRQLRQKYQELTQECDEKKSQYDSCAAGLESNRSKLEQEVRRLREECLQEESRYHYTNCMIKNLEVQLRRATDEMKAYISSDQQEKRKAIREQYTKNTAEQENLGKKLREKQKVIRESHGPNMKQAKMWRDLEQLMECKKQCFLKQQSQTSIGQVIQEGGEDRLIL
B3: IFT88 (protein, UniProt Q13099 1-824)
chain: MMQNVHLAPETDEDDLYSGYNDYNPIYDIEELENDAAFQQAVRTSHGRRPPITAKISSTAVTRPIATGYGSKTSLASSIGRPMTGAIQDGVTRPMTAVRAAGFTKAALRGSAFDPLSQSRGPASPLEAKKKDSPEEKIKQLEKEVNELVEESCIANSCGDLKLALEKAKDAGRKERVLVRQREQVTTPENINLDLTYSVLFNLASQYSVNEMYAEALNTYQVIVKNKMFSNAGILKMNMGNIYLKQRNYSKAIKFYRMALDQVPSVNKQMRIKIMQNIGVTFIQAGQYSDAINSYEHIMSMAPNLKAGYNLTICYFAIGDREKMKKAFQKLITVPLEIDEDKYISPSDDPHTNLVTEAIKNDHLRQMERERKAMAEKYIMTSAKLIAPVIETSFAAGYDWCVEVVKASQYVELANDLEINKAVTYLRQKDYNQAVEILKVLEKKDSRVKSAAATNLSALYYMGKDFAQASSYADIAVNSDRYNPAALTNKGNTVFANGDYEKAAEFYKEALRNDSSCTEALYNIGLTYEKLNRLDEALDCFLKLHAILRNSAEVLYQIANIYELMENPSQAIEWLMQVVSVIPTDPQVLSKLGELYDREGDKSQAFQYYYESYRYFPCNIEVIEWLGAYYIDTQFWEKAIQYFERASLIQPTQVKWQLMVASCFRRSGNYQKALDTYKDTHRKFPENVECLRFLVRLCTDLGLKDAQEYARKLKRLEKMKEIREQRIKSGRDGSGGSRGKREGSASGDSGQNYSASSKGERLSARLRALPGTNEPYESSSNKEIDASYVDPLGPQIERPKTAAKKRIDEDDFADEELGDDLLPE
B4: IFT52 (protein, UniProt Q9Y366 1-437)
chain: MEKELRSTILFNAYKKEIFTTNNGYKSMQKKLRSNWKIQSLKDEITSEKLNGVKLWITAGPREKFTAAEFEILKKYLDTGGDVFVMLGEGGESRFDTNINFLLEEYGIMVNNDAVVRNVYHKYFHPKEALVSSGVLNREISRAAGKAVPGIIDEESSGNNAQALTFVYPFGATLSVMKPAVAVLSTGSVCFPLNRPILAFYHSKNQGGKLAVLGSCHMFSDQYLDKEENSKIMDVVFQWLTTGDIHLNQIDAEDPEISDYMMLPYTATLSKRNRECLQESDEIPRDFTTLFDLSIFQLDTTSFHSVIEAHEQLNVKHEPLQLIQPQFETPLPTLQPAVFPPSFRELPPPPLELFDLDETFSSEKARLAQITNKCTEEDLEFYVRKCGDILGVTSKLPKDQQDAKHILEHVFFQVVEFKKLNQEHDIDTSETAFQNNF

These binders were tested against T1, mCherry-fused IFT54(1–532) (human) (assay: co-IP; lysates of IFT54-KO RPE1 cells stably expressing mCherry-fused IFT54 constructs; precipitated with GST-tagged anti-mCherry Nb (LaM-2 version) prebound to glutathione-Sepharose 4B beads; lysis buffer 20 mM HEPES-KOH pH 7.4, 3 mM MgCl2, 1 mM dithiothreitol, 100 mM KCl, 10% glycerol, 5 mM NaCl, 0.1% Triton X-100; beads washed five times; immunoblotting for endogenous IFT88, IFT81, IFT52, IFT25).

binding, no binding:
B1
B2
B3
B4
